# Patent US6569612B1, “Photographic element containing a high-dye-yield coupler for producing a yellow hue” (Eastman Kodak Company, priority 2001, dated 2003)
# Columns and labels:
# [1] = Example 3 photothermographic coating evaluation, emulsion E2; settings: for Amplification: Drange/(molar laydown/m^2 of coupler); for Amplification / Drange / Gamma / Rel. Amp.: Emulsion E2; for Amplification / Rel. Amp.: 161° C. for 18 s; for Blue Dmax: Emulsion E2 (green sensitized); for Blue Dmax / Drange / Gamma: heated drum 161° C. for 18 s; for Rel. Amp.: relative to CY-1
# [2] = Example 1 photothermographic coating evaluation, emulsion E-1, heated platen; settings: platen 150 deg C, 20 s; for Rel. Amp.: Amplification for test coupler/Amplification for CY-1; for Amplification: Drange/(molar laydown/m^2 of coupler); for Blue Dmax / Drange / Gamma: E-1 emulsion; for Blue Dmax: CY-1 0.72 mmol/m^2, dye releasing couplers 0.36 mmol/m^2; for Drange: Dmax − Dmin; for Gamma: maximum 2-point contrast
# [3] = Example 5 photothermographic coating evaluation; settings: for Blue Dmax: Example 5, format as Example 3; for Blue Dmax / Drange / Gamma: heated drum 161° C. for 18 s; for Amplification / Drange / Gamma / Rel. Amp.: Example 5; for Amplification: Drange/(molar laydown/m^2 of coupler); for Rel. Amp.: relative to CY-1
# [4] = Example 2 photothermographic coating evaluation, heated drum processor; settings: for Amplification: Drange/(molar laydown/m^2 of coupler); for Amplification / Rel. Amp.: drum 161° C. for 18 s; for Blue Dmax / Drange / Gamma: E-1 emulsion, heated drum 161° C. for 18 s; for Rel. Amp.: relative to CY-1
smiles,measurement,setting,value
CCC(C)(C)c1cc(C(C)(C)CC)c2oc(/C(C#N)=C/c3ccc(N(C(=O)OC(C(=O)Nc4ccc([N+](=O)[O-])cc4Cl)C(=O)c4ccccc4)C4CCCC4)cc3C)nc2c1 (stereo not drawn) [Coupler Y-5],Amplification,[1],2600
same,Blue Dmax,[1],1.13
same,Drange,[1],0.94
same,Gamma,[1],0.76
same,Rel. Amp.,[1],3.9
CCC(C)(C)c1cc(C(C)(C)CC)c2oc(/C(C#N)=C/c3ccc(N(C(=O)OC(C(=O)Nc4cc(CS(=O)(=O)c5ccc(O)cc5)ccc4Cl)C(=O)c4ccc(OC)cc4)C4CCCC4)cc3C)nc2c1 (stereo not drawn) [CY-5],Rel. Amp.,[2],2.0
same,Amplification,[2],2522
same,Blue Dmax,[2],1.18
same,Drange,[2],0.91
same,Gamma,[2],0.87
CCCCCCCCCCCCOC(=O)c1ccc(Cl)c(NC(=O)C(OC(=O)N(C)c2ccc(/C=C(\C#N)c3nc4cc(C(C)(C)C)ccc4o3)c(C)c2)C(=O)c2ccc(OC)cc2)c1 (stereo not drawn) [CY-7],Rel. Amp.,[2],1.8
same,Amplification,[2],2289
same,Blue Dmax,[2],1.08
same,Drange,[2],0.82
same,Gamma,[2],0.78
CCCCCCCCCCCCNS(=O)(=O)c1ccc(NC(=O)C(OC(=O)N(c2ccc(/C=C(\C#N)c3nc4cc(C(C)(C)C)ccc4o3)c(C)c2)C2CCCC2)C(=O)c2ccc(OC)cc2)c(Cl)c1 (stereo not drawn) [CY-8],Amplification,[1],1442
same,Blue Dmax,[1],0.65
same,Drange,[1],0.52
same,Gamma,[1],0.32
same,Rel. Amp.,[1],2.2
CCCCCCCCCCCCCCCCNS(=O)(=O)c1ccc(Cl)c(NC(=O)C(OC(=O)N(CCCCCCCCCCCC)c2ccc(/C=C(\C#N)c3nc4ccccc4o3)c(C)c2)C(=O)c2ccc(OC)cc2)c1 (stereo not drawn) [CY-12],Rel. Amp.,[2],2.5
same,Amplification,[2],3236
same,Blue Dmax,[2],1.34
same,Drange,[2],1.17
same,Gamma,[2],1.03
same,Blue Dmax,[3],0.55
same,Amplification,[3],1153
same,Drange,[3],0.42
same,Gamma,[3],0.22
same,Rel. Amp.,[3],1.8
COc1ccc(C(=O)C(OC(=O)N(c2ccc(/C=C(\C#N)c3nc4cc(C(C)(C)C)ccc4o3)c(C)c2)C2CCCC2)C(=O)Nc2ccc([N+](=O)[O-])cc2Cl)cc1 (stereo not drawn) [Coupler Y-4],Amplification,[4],1967
same,Blue Dmax,[4],0.86
same,Drange,[4],0.71
same,Gamma,[4],0.58
same,Rel. Amp.,[4],1.8
CCCCCCCCCCCCNS(=O)(=O)c1ccc(NC(=O)C(OC(=O)N(c2ccc(/C=C(\C#N)c3nc4ccccc4o3)c(C)c2)C2CCCC2)C(=O)c2ccccc2)c(Cl)c1 (stereo not drawn) [Coupler Y-9],Blue Dmax,[3],1.04
same,Amplification,[3],2208
same,Drange,[3],0.80
same,Gamma,[3],0.51
same,Rel. Amp.,[3],3.5
CCCCCCCCCCCCOC(=O)c1ccc(Cl)c(NC(=O)C(C(=O)c2ccc(OC)cc2)N2C(=O)C(OCC)N(Cc3ccccc3)C2=O)c1 (stereo not drawn) [CY-1],Amplification,[4],1103
same,Blue Dmax,[4],0.94
same,Drange,[4],0.79
same,Gamma,[4],0.69
same,Rel. Amp.,[4],(1.0)
same,Rel. Amp.,[2],(1.0)
same,Amplification,[2],1278
same,Blue Dmax,[2],1.15
same,Drange,[2],0.92
same,Gamma,[2],0.86
same,Blue Dmax,[3],0.59
same,Amplification,[3],632
same,Drange,[3],0.46
same,Gamma,[3],0.31
same,Rel. Amp.,[3],(1.0)
same,Amplification,[1],663
same,Blue Dmax,[1],0.58
same,Drange,[1],0.48
same,Gamma,[1],0.33
same,Rel. Amp.,[1],(1.0)
CCCCCCCCCCCCS(=O)(=O)c1ccc(NC(=O)C(OC(=O)N(C)c2ccc(/C=C(\C#N)c3nc4cc(C(C)(C)C)ccc4o3)c(C)c2)C(=O)c2ccccc2)c(Cl)c1 (stereo not drawn) [Coupler Y-1],Amplification,[4],3314
same,Blue Dmax,[4],1.59
same,Drange,[4],1.19
same,Gamma,[4],1.11
same,Rel. Amp.,[4],3.0
same,Rel. Amp.,[2],3.0
same,Amplification,[2],3822
same,Blue Dmax,[2],1.89
same,Drange,[2],1.38
same,Gamma,[2],1.32
same,Blue Dmax,[3],1.08
same,Amplification,[3],2144
same,Drange,[3],0.77
same,Gamma,[3],0.69
same,Rel. Amp.,[3],3.4
same,Amplification,[1],2353
same,Blue Dmax,[1],1.06
same,Drange,[1],0.85
same,Gamma,[1],0.6
same,Rel. Amp.,[1],3.6
CCCCCCCCCCCCCCCCNS(=O)(=O)c1ccc(Cl)c(NC(=O)C(OC(=O)N(C)c2ccc(/C=C(\C#N)c3nc4cc(C(C)(C)C)ccc4o3)c(C)c2)C(=O)c2ccc(OC)cc2)c1 (stereo not drawn) [Coupler Y-2],Rel. Amp.,[2],2.4
same,Amplification,[2],3019
same,Blue Dmax,[2],1.30
same,Drange,[2],1.09
same,Gamma,[2],1.01
CCCCCCCCCCCCS(=O)(=O)c1ccc(NC(=O)C(OC(=O)N(c2ccc(/C=C(\C#N)c3nc4cc(C(C)(C)C)ccc4o3)c(C)c2)C2CCCC2)C(=O)c2ccccc2)c(Cl)c1 (stereo not drawn) [Coupler Y-3],Amplification,[4],2467
same,Blue Dmax,[4],1.23
same,Drange,[4],0.89
same,Gamma,[4],0.80
same,Rel. Amp.,[4],2.2
same,Amplification,[1],1889
same,Blue Dmax,[1],0.93
same,Drange,[1],0.68
same,Gamma,[1],0.62
same,Rel. Amp.,[1],2.9
CCCCCCCCCCCCCCCCNS(=O)(=O)c1ccc(Cl)c(NC(=O)C(OC(=O)N(CCCC)c2ccc(/C=C(\C#N)c3nc4ccccc4o3)c(C)c2)C(=O)c2ccc(OC)cc2)c1 (stereo not drawn) [CY-13],Blue Dmax,[3],0.6
same,Amplification,[3],1222
same,Drange,[3],0.44
same,Gamma,[3],0.24
same,Rel. Amp.,[3],1.9
CCC(C)(C)c1cc(C(C)(C)CC)c2oc(/C(C#N)=C/c3ccc(N(C(=O)OC(C(=O)Nc4cc(CS(=O)(=O)c5ccccc5)ccc4Cl)C(=O)c4ccc(OC)cc4)C4CCCC4)cc3C)nc2c1 (stereo not drawn) [CY-4],Rel. Amp.,[2],1.7
same,Amplification,[2],2172
same,Blue Dmax,[2],0.98
same,Drange,[2],0.78
same,Gamma,[2],0.75
